This passage reports log2 fold change results from the supplement of paper PMC10849652.

Sequences of proteins named here, by UniProt entry; tags and fusion partners are left off. A change or cut given only in a name is not applied to a line headed by its entry.
UniProt Q8TDI0: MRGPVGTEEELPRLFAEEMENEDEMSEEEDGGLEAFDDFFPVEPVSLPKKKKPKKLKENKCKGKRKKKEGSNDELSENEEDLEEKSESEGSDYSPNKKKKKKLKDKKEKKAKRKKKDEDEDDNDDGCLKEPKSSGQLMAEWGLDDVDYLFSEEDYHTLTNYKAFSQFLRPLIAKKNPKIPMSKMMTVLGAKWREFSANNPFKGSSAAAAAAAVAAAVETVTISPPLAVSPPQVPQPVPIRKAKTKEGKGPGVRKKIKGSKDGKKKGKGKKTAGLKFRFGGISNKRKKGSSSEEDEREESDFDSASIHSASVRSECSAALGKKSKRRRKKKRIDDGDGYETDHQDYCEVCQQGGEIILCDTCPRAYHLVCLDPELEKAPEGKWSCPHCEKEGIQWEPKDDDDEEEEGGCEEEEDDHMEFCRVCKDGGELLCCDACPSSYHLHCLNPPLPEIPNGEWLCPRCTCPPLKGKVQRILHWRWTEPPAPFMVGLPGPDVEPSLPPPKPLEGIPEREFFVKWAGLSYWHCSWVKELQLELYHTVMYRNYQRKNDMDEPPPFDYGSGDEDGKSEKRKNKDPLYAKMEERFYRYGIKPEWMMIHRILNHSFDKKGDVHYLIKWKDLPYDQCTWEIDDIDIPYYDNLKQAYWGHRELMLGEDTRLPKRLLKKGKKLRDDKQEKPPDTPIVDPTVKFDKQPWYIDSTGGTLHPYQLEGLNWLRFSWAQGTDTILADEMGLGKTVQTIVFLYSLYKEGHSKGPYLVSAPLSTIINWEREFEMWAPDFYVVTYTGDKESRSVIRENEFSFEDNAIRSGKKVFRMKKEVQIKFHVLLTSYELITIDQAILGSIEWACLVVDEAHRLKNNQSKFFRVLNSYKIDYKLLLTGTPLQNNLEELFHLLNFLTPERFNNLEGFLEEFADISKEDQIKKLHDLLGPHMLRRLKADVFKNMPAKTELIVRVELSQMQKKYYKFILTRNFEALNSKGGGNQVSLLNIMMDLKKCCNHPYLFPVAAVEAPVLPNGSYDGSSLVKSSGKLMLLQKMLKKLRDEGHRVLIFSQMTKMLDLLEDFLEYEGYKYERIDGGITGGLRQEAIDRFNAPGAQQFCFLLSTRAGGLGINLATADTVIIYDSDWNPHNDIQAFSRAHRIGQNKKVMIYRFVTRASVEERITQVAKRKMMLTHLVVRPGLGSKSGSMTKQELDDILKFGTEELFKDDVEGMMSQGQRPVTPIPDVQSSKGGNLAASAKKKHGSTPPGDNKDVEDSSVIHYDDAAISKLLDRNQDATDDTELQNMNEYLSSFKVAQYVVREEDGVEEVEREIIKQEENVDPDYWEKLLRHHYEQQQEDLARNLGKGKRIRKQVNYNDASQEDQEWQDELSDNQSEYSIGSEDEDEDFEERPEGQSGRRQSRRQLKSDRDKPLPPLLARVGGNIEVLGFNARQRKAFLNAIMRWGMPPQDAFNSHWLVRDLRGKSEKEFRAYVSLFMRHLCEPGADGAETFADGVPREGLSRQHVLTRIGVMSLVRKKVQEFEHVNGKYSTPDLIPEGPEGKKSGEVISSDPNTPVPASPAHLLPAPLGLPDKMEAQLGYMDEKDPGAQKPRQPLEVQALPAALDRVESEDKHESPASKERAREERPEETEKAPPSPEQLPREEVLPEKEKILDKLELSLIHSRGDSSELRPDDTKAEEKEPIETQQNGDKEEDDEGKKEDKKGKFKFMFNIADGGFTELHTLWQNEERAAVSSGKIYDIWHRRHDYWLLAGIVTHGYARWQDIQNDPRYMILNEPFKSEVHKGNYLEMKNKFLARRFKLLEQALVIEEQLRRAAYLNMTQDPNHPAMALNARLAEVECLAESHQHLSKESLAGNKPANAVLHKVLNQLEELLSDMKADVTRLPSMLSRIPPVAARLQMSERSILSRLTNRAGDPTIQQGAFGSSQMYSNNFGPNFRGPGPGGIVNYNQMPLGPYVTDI
UniProt Q5VT25: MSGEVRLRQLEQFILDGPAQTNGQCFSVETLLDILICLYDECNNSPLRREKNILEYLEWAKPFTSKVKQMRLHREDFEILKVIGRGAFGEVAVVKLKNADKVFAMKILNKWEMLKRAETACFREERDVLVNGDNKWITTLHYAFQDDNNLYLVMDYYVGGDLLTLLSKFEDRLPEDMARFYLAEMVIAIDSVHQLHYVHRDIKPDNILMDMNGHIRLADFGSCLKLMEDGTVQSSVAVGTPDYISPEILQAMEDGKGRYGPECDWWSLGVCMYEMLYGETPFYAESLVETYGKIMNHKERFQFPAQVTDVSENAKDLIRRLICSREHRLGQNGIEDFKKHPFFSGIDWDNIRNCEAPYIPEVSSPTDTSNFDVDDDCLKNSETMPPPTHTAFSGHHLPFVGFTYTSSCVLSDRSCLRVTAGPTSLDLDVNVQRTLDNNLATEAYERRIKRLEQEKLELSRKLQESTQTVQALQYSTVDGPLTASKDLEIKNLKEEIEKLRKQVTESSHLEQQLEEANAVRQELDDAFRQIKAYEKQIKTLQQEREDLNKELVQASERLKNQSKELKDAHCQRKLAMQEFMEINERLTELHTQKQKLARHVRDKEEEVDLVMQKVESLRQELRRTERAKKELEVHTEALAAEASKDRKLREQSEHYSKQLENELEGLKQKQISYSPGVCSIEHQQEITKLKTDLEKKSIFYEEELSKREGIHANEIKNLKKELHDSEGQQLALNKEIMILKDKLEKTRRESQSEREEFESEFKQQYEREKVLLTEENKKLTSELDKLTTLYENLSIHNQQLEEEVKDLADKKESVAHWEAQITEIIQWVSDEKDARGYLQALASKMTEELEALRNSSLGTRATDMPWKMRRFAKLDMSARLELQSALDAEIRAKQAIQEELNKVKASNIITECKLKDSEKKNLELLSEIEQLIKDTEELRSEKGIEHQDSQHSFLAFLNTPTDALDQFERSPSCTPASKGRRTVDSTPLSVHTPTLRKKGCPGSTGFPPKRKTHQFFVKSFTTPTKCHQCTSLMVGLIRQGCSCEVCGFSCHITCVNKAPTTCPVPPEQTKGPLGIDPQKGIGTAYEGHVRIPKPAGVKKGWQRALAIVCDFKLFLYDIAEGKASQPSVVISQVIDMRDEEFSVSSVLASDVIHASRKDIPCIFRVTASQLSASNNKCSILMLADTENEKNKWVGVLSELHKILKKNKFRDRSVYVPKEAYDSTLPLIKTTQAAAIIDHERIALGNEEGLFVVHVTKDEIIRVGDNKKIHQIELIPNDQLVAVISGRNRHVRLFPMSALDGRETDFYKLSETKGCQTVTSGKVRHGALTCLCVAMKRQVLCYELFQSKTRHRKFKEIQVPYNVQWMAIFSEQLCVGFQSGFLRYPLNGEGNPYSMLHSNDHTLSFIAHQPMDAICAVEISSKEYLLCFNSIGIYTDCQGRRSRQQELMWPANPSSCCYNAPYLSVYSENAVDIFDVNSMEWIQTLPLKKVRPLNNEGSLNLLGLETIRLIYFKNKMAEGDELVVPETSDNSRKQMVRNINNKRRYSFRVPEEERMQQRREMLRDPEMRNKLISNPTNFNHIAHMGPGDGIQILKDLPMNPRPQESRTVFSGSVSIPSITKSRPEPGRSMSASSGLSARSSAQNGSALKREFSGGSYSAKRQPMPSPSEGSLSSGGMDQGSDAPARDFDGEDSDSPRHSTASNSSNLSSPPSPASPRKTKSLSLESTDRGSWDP
UniProt Q8TEP8: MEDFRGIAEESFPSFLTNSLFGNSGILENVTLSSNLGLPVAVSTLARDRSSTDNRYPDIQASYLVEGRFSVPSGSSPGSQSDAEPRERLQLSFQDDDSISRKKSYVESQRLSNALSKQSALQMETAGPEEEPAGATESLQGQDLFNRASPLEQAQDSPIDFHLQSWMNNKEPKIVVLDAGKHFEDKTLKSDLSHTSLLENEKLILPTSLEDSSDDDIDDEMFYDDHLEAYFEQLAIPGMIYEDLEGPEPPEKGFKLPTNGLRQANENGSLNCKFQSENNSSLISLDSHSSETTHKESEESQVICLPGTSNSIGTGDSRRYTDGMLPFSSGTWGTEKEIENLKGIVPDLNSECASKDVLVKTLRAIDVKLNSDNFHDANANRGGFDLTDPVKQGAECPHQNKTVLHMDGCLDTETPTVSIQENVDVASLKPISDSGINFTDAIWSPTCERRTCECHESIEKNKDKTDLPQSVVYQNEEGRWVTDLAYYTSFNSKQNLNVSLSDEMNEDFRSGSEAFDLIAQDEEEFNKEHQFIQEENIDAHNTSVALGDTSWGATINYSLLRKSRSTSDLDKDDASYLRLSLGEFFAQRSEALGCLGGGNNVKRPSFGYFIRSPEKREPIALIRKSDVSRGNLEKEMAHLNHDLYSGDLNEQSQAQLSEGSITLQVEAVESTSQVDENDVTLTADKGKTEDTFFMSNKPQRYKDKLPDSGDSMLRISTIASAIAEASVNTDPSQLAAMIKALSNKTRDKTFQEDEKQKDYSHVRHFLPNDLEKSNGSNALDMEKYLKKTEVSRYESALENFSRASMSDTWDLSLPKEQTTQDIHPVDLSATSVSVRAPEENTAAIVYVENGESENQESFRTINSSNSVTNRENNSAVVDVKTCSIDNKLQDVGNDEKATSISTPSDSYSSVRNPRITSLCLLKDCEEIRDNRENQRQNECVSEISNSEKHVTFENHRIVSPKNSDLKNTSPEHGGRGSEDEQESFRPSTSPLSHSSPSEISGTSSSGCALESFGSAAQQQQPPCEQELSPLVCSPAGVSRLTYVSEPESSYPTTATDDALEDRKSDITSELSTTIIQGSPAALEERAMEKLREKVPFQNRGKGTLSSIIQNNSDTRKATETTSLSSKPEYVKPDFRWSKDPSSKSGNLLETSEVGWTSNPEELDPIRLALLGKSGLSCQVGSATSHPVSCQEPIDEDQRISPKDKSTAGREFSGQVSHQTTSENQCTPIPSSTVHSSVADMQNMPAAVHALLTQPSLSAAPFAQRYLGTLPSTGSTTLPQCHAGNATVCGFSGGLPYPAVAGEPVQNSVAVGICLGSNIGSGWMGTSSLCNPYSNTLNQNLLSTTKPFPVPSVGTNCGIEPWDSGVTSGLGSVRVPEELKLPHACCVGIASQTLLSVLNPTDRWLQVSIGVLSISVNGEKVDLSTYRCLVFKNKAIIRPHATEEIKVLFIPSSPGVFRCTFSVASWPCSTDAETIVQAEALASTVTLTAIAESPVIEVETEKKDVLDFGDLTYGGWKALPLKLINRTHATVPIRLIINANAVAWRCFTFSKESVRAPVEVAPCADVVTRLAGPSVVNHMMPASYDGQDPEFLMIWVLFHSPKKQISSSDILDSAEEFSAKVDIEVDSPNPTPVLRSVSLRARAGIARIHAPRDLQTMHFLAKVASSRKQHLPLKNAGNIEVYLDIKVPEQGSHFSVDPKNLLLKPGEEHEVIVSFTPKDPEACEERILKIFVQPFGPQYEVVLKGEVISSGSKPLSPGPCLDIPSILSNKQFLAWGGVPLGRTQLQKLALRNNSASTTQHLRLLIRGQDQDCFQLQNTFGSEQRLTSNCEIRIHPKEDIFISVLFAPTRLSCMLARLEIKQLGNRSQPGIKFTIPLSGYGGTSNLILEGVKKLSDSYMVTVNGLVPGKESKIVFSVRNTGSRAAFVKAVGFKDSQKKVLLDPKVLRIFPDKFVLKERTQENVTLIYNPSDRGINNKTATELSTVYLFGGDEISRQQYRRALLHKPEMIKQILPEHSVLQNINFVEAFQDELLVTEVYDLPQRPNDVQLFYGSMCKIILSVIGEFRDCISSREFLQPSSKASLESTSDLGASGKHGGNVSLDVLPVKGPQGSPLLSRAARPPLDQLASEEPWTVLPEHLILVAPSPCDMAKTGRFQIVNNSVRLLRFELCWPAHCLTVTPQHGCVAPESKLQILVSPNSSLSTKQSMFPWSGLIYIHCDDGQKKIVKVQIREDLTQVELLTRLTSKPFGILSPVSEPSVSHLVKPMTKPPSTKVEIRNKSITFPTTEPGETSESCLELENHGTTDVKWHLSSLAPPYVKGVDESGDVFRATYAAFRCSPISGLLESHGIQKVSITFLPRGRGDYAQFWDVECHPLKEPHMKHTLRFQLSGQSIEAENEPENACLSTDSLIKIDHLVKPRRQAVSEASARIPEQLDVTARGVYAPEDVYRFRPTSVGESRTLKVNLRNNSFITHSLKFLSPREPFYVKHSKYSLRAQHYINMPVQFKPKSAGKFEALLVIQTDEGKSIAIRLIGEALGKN
UniProt Q7LBR1: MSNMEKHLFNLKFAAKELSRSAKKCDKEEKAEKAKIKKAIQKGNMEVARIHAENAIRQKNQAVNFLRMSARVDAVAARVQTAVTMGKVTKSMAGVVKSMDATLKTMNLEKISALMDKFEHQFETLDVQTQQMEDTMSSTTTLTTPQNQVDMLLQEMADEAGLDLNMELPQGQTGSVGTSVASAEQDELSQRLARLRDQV
UniProt Q9BUK0: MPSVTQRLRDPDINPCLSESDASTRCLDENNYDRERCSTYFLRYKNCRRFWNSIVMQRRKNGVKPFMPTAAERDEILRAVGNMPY

This is one part of the list.

Compound in one assay: CN1CC[C@H](c2c(O)cc(O)c3c(=O)cc(-c4ccccc4Cl)oc23)[C@H](O)C1 [alvocidib]
Nature of the assay: log2 fold change, soluble protein after heating vs DMSO (PISA); higher = thermal stabilisation; K562 cells, 10 uM, 30 min; active = over 0.2 and 3.5 SD of the protein, either way, in both replicates (recomputed). The gist of the method: (§1)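 K562 cells (2×10^6 cells/mL) were treated with 10 μM compound for 30 min, and aliquots were heated for 3 min over 48°C-58°C. Pooled aliquots were extracted in PBS with 0.5% NP-40 at 4°C, and the supernatant after 21,000xg for 90 min was measured by TMTpro 16plex LC-MS/MS with channel sums equalised. Reported thermal stability, relative to control samples and from duplicates, is a log2 fold change.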
On to CEP44 (UniProt Q9C0F1), for which the log2 fold change is inactive: 0.011.
Same read-out and setting: for CDYL (UniProt Q9Y232) the value was inactive: -0.028.
Turning to CFH (UniProt P08603), the log2 fold change was inactive: 0.028.
On the same count and under the same terms, for CHD6 (UniProt Q8TD26) the value was inactive: -0.043; for CFL1 (UniProt P23528), inactive: -0.079; for CDCA5 (UniProt Q96FF9), inactive: -0.195.
Same read-out and setting: for CHD5 (UniProt Q8TDI0) the value was inactive: -0.197; for CEP250 (UniProt Q9BV73), inactive: -0.071.
The same measure, in the same setting: for CHMP2A (UniProt O43633) the value was inactive: -0.05; for CHAF1B (UniProt Q13112), inactive: 0.019; for CHM (UniProt P24386), inactive: -0.092.
In the case of CENPH (UniProt Q9H3R5), the log2 fold change was inactive: 0.083.
With CDKN2C (UniProt P42773), the log2 fold change was inactive: -0.189.
On the same count and under the same terms, for CELF1 isoform 4 (UniProt Q92879) the value was inactive: -0.127.
On the same count and under the same terms, for CDIPT (UniProt O14735) the value was inactive: 0.004; for CFAP20 (UniProt Q9Y6A4), inactive: 0.129.
CDC42EP4 (UniProt Q9H3Q1): the log2 fold change was inactive: -0.001.
The same measure, in the same setting: for CDK19 (UniProt Q9BWU1) the value was active: 0.585; for CENPF (UniProt P49454), inactive: -0.005.
The same measure, in the same setting: for CERS6 isoform 2 (UniProt Q6ZMG9) the value was inactive: 0.053.
For the target CHEK2 isoform 9 (UniProt O96017), the log2 fold change was inactive: -0.103.
Still for that read-out and setting: for CDC42BPA isoform 6 (UniProt Q5VT25) the value was active: -0.688; for CEP97 isoform 2 (UniProt Q8IW35), inactive: 0.016.
On the same count and under the same terms, for CDK9 isoform 2 (UniProt P50750) the value was active: 0.405.
Same read-out and setting: for CENPO (UniProt Q9BU64) the value was inactive: -0.078; for CDCA3 (UniProt Q99618), inactive: -0.017; for CDS2 (UniProt O95674), inactive: 0.03.
On to CEP192 (UniProt Q8TEP8), for which the log2 fold change is inactive: 0.089.
Same read-out and setting: for CHMP1B (UniProt Q7LBR1) the value was inactive: -0.018.
On the same count and under the same terms, for CHCHD7 isoform 4 (UniProt Q9BUK0) the value was inactive: -0.048; for CFL2 (UniProt Q9Y281), inactive: -0.086; for CDKAL1 (UniProt Q5VV42), inactive: 0.051.
On the same count and under the same terms, for CEP170 (UniProt Q5SW79) the value was inactive: 0.068.
For CHCHD3 (UniProt Q9NX63), the log2 fold change was inactive: -0.023.
Same read-out and setting: for CFAP298 (UniProt P57076) the value was inactive: 0.054.
Same read-out and setting: for CHKB (UniProt Q9Y259) the value was inactive: -0.017.
On the same count and under the same terms, for CHMP1A (UniProt Q9HD42) the value was inactive: -0.031; for CHML (UniProt P26374), inactive: -0.053.

Compound in the next assay: CN1CCc2c(c3ccccc3n2Cc2ccc(C(=O)NO)cc2)C1 [Tubastatin A]
Described as above. The gist of the method:
as §1
CEP44 (UniProt Q9C0F1): the log2 fold change is inactive: -0.018.
For CDYL (UniProt Q9Y232), the log2 fold change was inactive: 0.034.
Still for that read-out and setting: for CFH (UniProt P08603) the value was inactive: 0.05; for CHD6 (UniProt Q8TD26), inactive: -0.188.
Consider CFL1 (UniProt P23528), for which the log2 fold change is inactive: -0.024.
In the case of CDCA5 (UniProt Q96FF9), the log2 fold change was inactive: 0.051.
Consider CHD5 (UniProt Q8TDI0), for which the log2 fold change was inactive: 0.112.
Same read-out and setting: for CEP250 (UniProt Q9BV73) the value was inactive: -0.021; for CHMP2A (UniProt O43633), inactive: 0.019.
As for CHAF1B (UniProt Q13112), the log2 fold change was inactive: -0.027.
CHM (UniProt P24386): the log2 fold change is inactive: -0.059.
On the same count and under the same terms, for CENPH (UniProt Q9H3R5) the value was inactive: 0.068; for CDKN2C (UniProt P42773), inactive: -0.08; for CELF1 isoform 4 (UniProt Q92879), inactive: 0.06.
Still for that read-out and setting: for CDIPT (UniProt O14735) the value was inactive: -0.089.
Same read-out and setting: for CFAP20 (UniProt Q9Y6A4) the value was inactive: 0.045.
For the target CDC42EP4 (UniProt Q9H3Q1), the log2 fold change is inactive: -0.066.
Same read-out and setting: for CDK19 (UniProt Q9BWU1) the value was inactive: -0.104.
Still for that read-out and setting: for CENPF (UniProt P49454) the value was inactive: 0.072; for CERS6 isoform 2 (UniProt Q6ZMG9), inactive: -0.04.
Still for that read-out and setting: for CHEK2 isoform 9 (UniProt O96017) the value was inactive: 0.002; for CDC42BPA isoform 6 (UniProt Q5VT25), inactive: 0.022; for CEP97 isoform 2 (UniProt Q8IW35), inactive: 0.118.
As to CDK9 isoform 2 (UniProt P50750), the log2 fold change was inactive: 0.01.
CENPO (UniProt Q9BU64): the log2 fold change was inactive: 0.122.
Same read-out and setting: for CDCA3 (UniProt Q99618) the value was inactive: 0; for CDS2 (UniProt O95674), inactive: 0.058.
For the target CEP192 (UniProt Q8TEP8), the log2 fold change is inactive: 0.156.
On the same count and under the same terms, for CHMP1B (UniProt Q7LBR1) the value was inactive: -0.021; for CHCHD7 isoform 4 (UniProt Q9BUK0), inactive: -0.058.
Consider CFL2 (UniProt Q9Y281), for which the log2 fold change is inactive: 0.036.
As to CDKAL1 (UniProt Q5VV42), the log2 fold change is inactive: -0.162.
Still for that read-out and setting: for CEP170 (UniProt Q5SW79) the value was inactive: 0.01.
Still for that read-out and setting: for CHCHD3 (UniProt Q9NX63) the value was inactive: -0.022; for CFAP298 (UniProt P57076), inactive: 0.328.
As for CHKB (UniProt Q9Y259), the log2 fold change was inactive: -0.001.
Still for that read-out and setting: for CHMP1A (UniProt Q9HD42) the value was inactive: -0.024; for CHML (UniProt P26374), inactive: -0.033.
